Experimental data taken from publication PMC5744976.
Results are given in words; binding and its absence hold for the method and conditions named. Binding seen in cells or lysates may run through a third protein. Some binding calls cover weakened binding; strength is not graded here. One block for each molecule: values may come before it.

Amino acid sequences for entries named in this document (tags omitted).
UniProt Q9Y113: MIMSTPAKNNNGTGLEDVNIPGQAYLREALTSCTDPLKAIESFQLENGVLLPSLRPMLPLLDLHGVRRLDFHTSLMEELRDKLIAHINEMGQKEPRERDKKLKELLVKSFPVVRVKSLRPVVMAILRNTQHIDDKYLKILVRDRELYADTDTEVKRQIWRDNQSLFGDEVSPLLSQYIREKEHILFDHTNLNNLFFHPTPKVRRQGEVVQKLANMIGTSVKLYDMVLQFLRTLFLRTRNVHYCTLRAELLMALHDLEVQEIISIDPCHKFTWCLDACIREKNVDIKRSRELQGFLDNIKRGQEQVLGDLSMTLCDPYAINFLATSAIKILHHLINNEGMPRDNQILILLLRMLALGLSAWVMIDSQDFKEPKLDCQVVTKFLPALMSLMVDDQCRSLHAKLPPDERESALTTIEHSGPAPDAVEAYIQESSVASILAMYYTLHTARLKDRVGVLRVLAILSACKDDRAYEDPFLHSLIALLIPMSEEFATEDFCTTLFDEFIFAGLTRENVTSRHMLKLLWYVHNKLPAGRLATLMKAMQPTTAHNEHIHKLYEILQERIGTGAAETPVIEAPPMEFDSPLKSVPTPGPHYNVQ

Target: T1, Chromatin-Linked Adapter for MSL Proteins (CLAMP) (D. melanogaster (endogenous in S2 and Kc cells)) (UniProt Q9V9N4)
T1 sequence: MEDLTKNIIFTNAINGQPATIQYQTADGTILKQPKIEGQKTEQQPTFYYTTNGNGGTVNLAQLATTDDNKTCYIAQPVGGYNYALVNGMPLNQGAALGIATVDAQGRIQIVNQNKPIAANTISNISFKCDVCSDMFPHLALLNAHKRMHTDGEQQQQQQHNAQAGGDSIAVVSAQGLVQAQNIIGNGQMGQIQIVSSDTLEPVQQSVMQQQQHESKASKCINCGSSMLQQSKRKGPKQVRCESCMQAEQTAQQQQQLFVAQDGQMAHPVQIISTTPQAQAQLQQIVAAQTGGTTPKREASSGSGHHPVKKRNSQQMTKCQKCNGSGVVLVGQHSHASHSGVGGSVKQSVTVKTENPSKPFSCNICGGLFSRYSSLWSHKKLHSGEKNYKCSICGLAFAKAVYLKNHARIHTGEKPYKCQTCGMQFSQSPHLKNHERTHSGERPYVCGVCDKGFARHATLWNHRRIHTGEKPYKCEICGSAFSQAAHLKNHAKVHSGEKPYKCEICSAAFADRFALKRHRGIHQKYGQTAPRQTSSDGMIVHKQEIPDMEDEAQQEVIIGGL
Test: co-IP; non-crosslinked immunoprecipitation of CLAMP (or NELF-B, IgG) from S2 and Kc cell lysates with antibody-coupled Dynabeads; western blotting for NELF-A and NELF-B

- binding: binds
Molecule: Negative Elongation Factor B (from UniProt Q9Y113 1-594)

- binding: binds
B1: Negative Elongation Factor A (protein, UniProt Q86NP2 1-1251)
chain: MANVRDSDTSLWLHNKLGTSNDSWINGSICSQLNKEVLRNIKECFPDLQTQVKLKLLLSFLHIPRRLVEEWKAELEEVIEVAGLDSELWVSMLAETMKTFPATSSLNTEISDYEDTRPIFIDMVNDLRKLVTKHSDLGMLPLECQYLNKNALISVVGQQPAPVKHFTLKRKPKSAQLRTELLHKSADAQSSLKKASAPTIPLRSRGMPRKMTDTTPLKGIPSRMPTTGFRSATVPGNAAQRPNLSRTPAGRKDGGIKLIEFTEQPLGYAAAKKRKREQQLEEQQKKQEQKQQQAAAAAAAAATAAASNAGDSSPTDAATASGGETPVTPTSANNSFEIKMEPQQLNQSAGSLEEPQDDEMSGKANMECDIETPEYATATLDFAQATSTSVADGQPGKPAVETKLKTPRTPKSAAKLNNNNNNNNNNSFNHTPKRIKQEIEIKSEEIIVPASIKLEKIETSPSTQRVSIQQQPPSLVQRTPHLLIRSSPQKRQNNGATTSAGTTTTTVGNTTIKMEKLDIKPMIRATGVSPSTSAGTTTTLLTPQQLRQAANPLANLPNNISVKITSAKAKAAAAAAATSSGSQTQSQQPQTLQVQQAPQQSHPPLLINSSTPVILASSPSAQRAKALALPSSSTSATTTTTIPSQAIKTMPLSQLKTATNSGPVIISQTIIQPAKRAQQQAGTSSAAAASQQQQQQQSQQQLLHQQIQQQTQQQAQLPQQPQQQQTQYILATPQQQPQQIQQQQQQQQPILPTLTSFSHSRPMPQTTTLYQATTPSGSGQTPTKILLKTSGSSSVVMTPLRQAQPQQATAVVSSNPPPLVATSAAVVSPGQTTLNIQNVQLPNRPVTIQPASQAAQQQHMQAQLQQQQPHPQHTIVANTTATQQPKLSQVLMQPTAAVGTSGVSALNVSPTSGKNKTIILTQKGVILRNIGGDMYQQIPISNVGNMQGLGGTTLMTTTAGPPSLVKTTPSSGVQLQQQQSGKQILPTLIPTSSLGGQHVIVQQQQPTNVIGNSQQQTIIRPVMTNVGGGLTTLPQGLTLIQRPGQQPQLVQVQAAPGSTQRTIITQSNTAAAASQQQPRQQQQQILVQHKPAPTLQQRLVTSTTSGGQGQQGNPNAGLPRTVQVQVQAQQQQQPQQQQATQQQSQQAPQRRGLSLSNEHVHKAHEMFRKANRVSRPDKALILGFMAGLRENPRPNNENVLVIKLGETEEKVQQDNGHTALCLVESHIRLDYNTGEWKTFQNYRLQDQSAAS
